Source: patent US12201671B2, “Polypeptides for treatment of cancer” (Saint Joseph's University, priority 2019, dated 2025)

Experiments:
Assay in all cases: Cell and nuclear entry (immunofluorescence, fractionation/Western blot)
Format in all cases: cell-based
MCF10A cells = conditions: 10 μM, 1 hr
BT549 cells = conditions: BT549, 10 μM, 1 hr
MDA-MB-231 cells = conditions: MDA-MB-231, 10 μM, 1 hr

Substance | Entry into cells and nucleus (MCF10A cells) | Entry into cells and nucleus (BT549 cells) | Entry into cells and nucleus (MDA-MB-231 cells)
VGDALQGLRLFSTQASIGAQMEQLAAQPLRAGQMLQLAQASPLRT [CAPER scrambled peptide, scrambled control peptide, reference compound] | effectively enter the cells and travel to the nucleus | effectively enter the cells and travel to the nucleus | effectively enter the cells and travel to the nucleus
Biotin-RLQLMARLAEGTGLQIPPAAQQALQMSGSLAFGAVAEFSFVIDLQ (N-terminus assumed) [CAPER peptide HCC1.4] | effectively enter the cells and travel to the nucleus | effectively enter the cells and travel to the nucleus | effectively enter the cells and travel to the nucleus
Biotin-RLQLMARLAEGTGLQIPPAAQQALQMSGSLAFGAVADLQTRLSQQ (N-terminus assumed) [CAPER peptide HCC1.3] | effectively enter the cells and travel to the nucleus | effectively enter the cells and travel to the nucleus | effectively enter the cells and travel to the nucleus

Some entries repeat one wording, which the source may state once for all of them. Where no end group is shown, it is not given here. The star is where a group is joined. Biotin = O=C1N[C@H]2[C@H](CS[C@H]2CCCCC(=O)*)N1
